Reference: PubChem BioAssay AID2551 (National Center for Advancing Translational Sciences (NCATS), 2010)
About 17,000 (5.5%) of roughly 310,000 compounds were called active. Inconclusive results, whose numbers are uncertain, are shown with a selection of clear calls. The call rests on the fitted dose curve; in most records, active means well fitted inhibition curve with a large enough effect; inconclusive means small, poorly fitted or top-dose-only effect, or effect the other way; inactive means no such curve, though single readings can be large or run the other way. Where the call is inconclusive, the potency comes from a doubtful curve fit.

The chains behind the UniProt entries cited, without tags or fusion partners. Where a name states a change or a piece, a line headed by the entry shows the natural chain unless it says otherwise.
UniProt P51450: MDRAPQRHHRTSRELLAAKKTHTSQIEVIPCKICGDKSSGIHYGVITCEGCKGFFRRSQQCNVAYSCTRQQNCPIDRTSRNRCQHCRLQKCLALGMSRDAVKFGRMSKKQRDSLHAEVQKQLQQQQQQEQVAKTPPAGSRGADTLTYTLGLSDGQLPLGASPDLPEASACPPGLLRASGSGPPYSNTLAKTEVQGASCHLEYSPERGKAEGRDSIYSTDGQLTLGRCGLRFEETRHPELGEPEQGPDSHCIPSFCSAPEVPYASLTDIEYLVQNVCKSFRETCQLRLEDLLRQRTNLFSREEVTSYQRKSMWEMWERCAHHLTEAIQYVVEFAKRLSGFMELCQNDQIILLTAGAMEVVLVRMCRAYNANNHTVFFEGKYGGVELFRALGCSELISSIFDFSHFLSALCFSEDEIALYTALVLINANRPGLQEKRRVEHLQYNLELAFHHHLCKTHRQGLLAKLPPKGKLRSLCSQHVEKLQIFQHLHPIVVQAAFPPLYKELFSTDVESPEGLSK

molecular target: Nuclear receptor ROR-gamma (Mus musculus) (UniProt P51450); assay: qHTS for inhibitors of ROR gamma transcriptional activity; conditions: Drosophila S2 Gal4-RORgamma UAS-luciferase reporter, 20 h; activity change, negative = inhibition: at 53.6 µM (top of the series); further: nearly all actives have a fitted effect of over 60% in size
How it was run: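 Drosophila Schneider cells stably carrying a metallothionein-driven Gal4 DBD–ROR gamma fusion and a UAS-Photinus luciferase reporter were exposed to compound for 1 hr, then induced with copper sulfate (700 uM final) for 20 hr at ambient temperature before luminescence reading.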
On the % scale 0 is the no-effect control and ±100 the full control effect; potency means the concentration at half of the fitted maximal effect.

Structure (SMILES) | activity change, negative = inhibition | Potency
CCc1nc(SCC(=O)Nc2ccc(N(C)C)cc2)c2ccccc2n1 | inactive: 0.231% | –
CCOc1ccc(CC(=O)N/N=C/c2cccnc2)cc1 | inactive: 16.2% | –
COc1cccc(/C=N/NC(=O)CSc2ccccc2C)c1O | – | active: 0.708 µM
Cc1cc(C)c(C#N)c(SCC(=O)C(C)(C)C)n1 | inconclusive: 54.7% [activator] | –
CCc1cc(C(=O)N2CCCC(Nc3ccc(F)c(F)c3)C2)n(C)n1 (centres undefined) | – | inconclusive: 35.5 µM [activator, single point]
O=C1CNC(=S)N1CCCc1ccccc1 | – | inconclusive: 11.2 µM [inhibitor, partial curve]
CCNc1ccc(C(=O)NN=C2CCCC2)cc1[N+](=O)[O-] | – | inconclusive: 35.5 µM [inhibitor, single point]
Cn1c(=O)c2ncn(CC(=O)NCCOc3ccc(C(C)(C)C)cc3)c2n(C)c1=O | – | inconclusive: 5.62 µM [activator, partial curve]
Cc1ccc(NC(=O)CC2SC(=O)NC2=O)cc1 (centres undefined) | – | active: 5.01 µM
CC(=O)Nc1cccc(C(=O)/C=C/c2ccc(/C=C/C(=O)c3cccc(NC(C)=O)c3)cc2)c1 | – | active: 10 µM
O=C1NC(=Nc2cccc(Cl)c2)SC1Cc1cccc(Cl)c1Cl (centres undefined) | – | inconclusive: 25.1 µM [inhibitor, single point]
O=C(Nc1ccc(C(=O)N2CCCCC2)cc1)c1ccc(Br)cc1 | – | inconclusive: 11.2 µM [activator, partial curve]
COc1ccc(-c2csc(NC(=O)CN3C(=O)CCC3=O)n2)cc1 | inactive: 12% | –
CC(C)Oc1cccc(C(=O)NC(=S)Nc2ccc3c4c(cccc24)CC3)c1 | – | active: 11.2 µM
CCN(CC)S(=O)(=O)c1cc(NC(=O)C(C)OC(=O)c2[nH]c(C)c(C(C)=O)c2C)ccc1C (centres undefined) | – | inconclusive: 11.2 µM [activator, partial curve, poor fit]
COc1nc(Cc2ccc(Cl)cc2)nc2ccccc12 | inactive: 29.9% | –
CCCn1c(=O)c(C(=O)NNC(=O)c2cccc([N+](=O)[O-])c2)c(O)c2ccccc21 | – | inconclusive: 35.5 µM [inhibitor, single point]
O=C(c1cnn2c(C(F)(F)F)cc(-c3ccco3)nc12)N1CCCc2ccccc21 | – | inconclusive: 7.94 µM [inhibitor, partial curve]
Cc1c(C)n(CCCN(C)C)c2ncnc(NCc3ccccc3)c12 | inactive: -5.97% | –
CCCCNC(=S)NNC(=O)c1ccc(Br)o1 | – | active: 0.794 µM
COC(c1ccc(Cl)cc1)(c1ccc(Cl)cc1)C(Oc1nc(C)cc(C)n1)C(=O)O (centres undefined) | – | inconclusive: 14.1 µM [activator, partial curve]
COc1ccc(-c2nn(-c3ccccc3)cc2CO)cc1 | – | inconclusive: 3.55 µM [activator, partial curve]
CCn1c(CNC(=O)COc2ccc(C(C)C)cc2)nnc1SCC(=O)Nc1ccccc1 | – | inconclusive: 11.2 µM [inhibitor, partial curve]
CC(=O)Nc1ccc(NC(=O)C2CC(=O)Nc3nc4ccccc4n32)cc1 (centres undefined) | – | inconclusive: 15.8 µM [inhibitor, single point]
CCN1C(=O)c2cccc3c(S(=O)(=O)Nc4nc(C)cs4)ccc1c23 | – | inconclusive: 11.2 µM [inhibitor, partial curve]

Whole records, looked up by structure.
`CCOc1ccc(CC(=O)N/N=C/c2cccnc2)cc1` reads activity change, negative = inhibition: inactive: 16.2%
`O=C(c1cnn2c(C(F)(F)F)cc(-c3ccco3)nc12)N1CCCc2ccccc21` reads Potency: inconclusive: 7.94 µM [inhibitor, partial curve]
`COc1nc(Cc2ccc(Cl)cc2)nc2ccccc12` reads activity change, negative = inhibition: inactive: 29.9%
`CCNc1ccc(C(=O)NN=C2CCCC2)cc1[N+](=O)[O-]` reads Potency: inconclusive: 35.5 µM [inhibitor, single point]

Single entries from the list.
For Potency, CCN(CC)S(=O)(=O)c1cc(NC(=O)C(C)OC(=O)c2[nH]c(C)c(C(C)=O)c2C)ccc1C (centres undefined) shows inconclusive: 11.2 µM [activator, partial curve, poor fit]
For activity change, negative = inhibition, Cc1cc(C)c(C#N)c(SCC(=O)C(C)(C)C)n1 shows inconclusive: 54.7% [activator]

(continued)

Structure (SMILES) | activity change, negative = inhibition | Potency
COc1cccc(/C=N/NC(=O)CNC(=O)CCc2ccccc2)c1O | – | inconclusive: 5.01 µM [inhibitor, single point]
CC(C)N1C(=O)/C(=C\c2nc3ccccc3c(=O)[nH]2)c2ccccc21 | inactive: -33.1% | –
CC(=O)Oc1cccc(/C=c2\sc3nc(-c4ccco4)nn3c2=O)c1 | – | inconclusive: 12.6 µM [inhibitor, single point]
C=CCNC(=O)c1sc(-c2ccccc2)nc1C | – | inconclusive: 5.01 µM [activator, partial curve]
Cc1ccc(Nc2c(-c3ccc(N4CCOCC4)cc3)nc3ncccn23)cc1 | – | inconclusive: 11.2 µM [activator, partial curve]
CN(Cc1ccccc1)S(=O)(=O)c1ccc(OCC(=O)NCc2cccnc2)cc1 | – | inconclusive: 35.5 µM [activator, single point]
CC1C/C(=N/N=C2/NC(=O)CS2)CC(C)(C)C1 (centres undefined) | – | active: 2.24 µM
COc1ccc(CCNC(=O)C(C)n2nc(C)c3c(C)n(-c4ccc(C)cc4)nc3c2=O)c(OC)c1 (centres undefined) | inactive: 14.8% | –
CC1=N/C(=C\c2ccc3c(c2)OCO3)C(=O)N1c1ccc(C(=O)O)cc1 | inactive: 32.8% | –
O=C(O)C1CC(=O)N(C2CCCCCC2)C1 (centres undefined) | – | inconclusive: 12.6 µM [inhibitor, partial curve, poor fit]
Cc1nnc2ccc(N3CCN(c4cccc(C(F)(F)F)c4)CC3)nn12 | inactive: -27.8% | –
COc1ccc(CCN2C(=O)CC(N3CCOCC3)C2=O)cc1OC (centres undefined) | inactive: -13.3% | –
O=C(NNc1cc(Br)c(O)c(Br)c1)c1ccccc1 | – | inconclusive: 35.5 µM [inhibitor, single point]
O=C(CCl)Nc1ccccc1Sc1ccc(Cl)cc1 | – | inconclusive: 11.2 µM [inhibitor, single point]
O=C(CSc1c2c(nc3ccc(Cl)cc13)CCCC2)NCCCN1CCOCC1 | – | inconclusive: 11.2 µM [inhibitor, single point]
CCN1CCN(c2c(C=O)c(Cl)nc3ccc(OC)cc23)CC1 | inactive: -0.23% | –
O=C(NCc1ccncc1)C(=O)NCC(c1ccccc1)c1ccccc1 | – | inconclusive: 11.2 µM [activator, single point]
Clc1cccc(C[n+]2cc(-c3ccccc3)n3c2CCC3)c1 | inactive: 35.5% | –
COc1ccc2c(CC(=O)Nc3nnc(C4CC4)s3)coc2c1 | – | inconclusive: 0.141 µM [activator, single point]
N#C/C(=C(/O)c1cccs1)c1nnc2n1CCCCC2 | – | active: 10 µM
CCOc1ccc(C(=O)CCN2CCCCCC2)cc1 | – | active: 4.47 µM
O=C(/C=C/c1cccc(O)c1)c1ccc(N2CCOCC2)cc1 | – | active: 3.55 µM
CC(C)N1CC(COc2ccc(Cl)cc2Cl)OC1=O (centres undefined) | – | inconclusive: 12.6 µM [activator, single point]
Cc1ccc2nc(NC(=O)CSCC(=O)OCC(=O)c3ccc(Br)cc3)sc2c1 | – | active: 3.16 µM
Cc1nccn1Cc1ccccc1 | – | inconclusive: 11.2 µM [inhibitor, single point]

Structure (SMILES) | activity change, negative = inhibition | Potency
Cc1cc(CNC(=O)c2cc(Br)ccc2Cl)nn1C | – | inconclusive: 5.62 µM [inhibitor, single point]
Cc1[nH]n(-c2cccc(Cl)c2)c(=O)c1-c1ccccc1 | – | inconclusive: 15.8 µM [activator, single point]
Cc1ccc(NC(=O)CN(C)S(=O)(=O)c2cccs2)cc1F | – | inconclusive: 15.8 µM [activator, partial curve]
Cc1c(C(=O)N2CCc3ccccc32)oc2c1C(=O)CC(C)(C)C2 | – | inconclusive: 1.58 µM [activator, partial curve, poor fit]
COc1cc(OC)c(C(=O)NCCCn2ccnc2)cc1OC | – | inconclusive: 3.16 µM [inhibitor, partial curve, poor fit]
O=C(Nc1cccc(Cl)c1)c1ccc(F)c(S(=O)(=O)NCc2cccs2)c1 | inactive: 14.9% | –
Cc1ccc(-c2noc(CN3CCN(c4ccccc4F)CC3)n2)cc1 | – | inconclusive: 35.5 µM [activator, single point]
O=c1c(=NNc2ccccc2Cl)c(=O)c2ccccc12 | – | inconclusive: 2 µM [inhibitor, single point]
CSc1cccc(NC(=S)N(CCC(C)C)C(C)c2ccncc2)c1 (centres undefined) | – | inconclusive: 25.1 µM [inhibitor, single point]
COc1ccc(C2CC(c3cccs3)=NN2C(=O)CSc2nc3ccccc3o2)cc1 (centres undefined) | inactive: -17.6% | –
COc1cccc(NC(=S)N(CCCN2CCOCC2)Cc2cn(C)c3ccccc23)c1 | – | active: 17.8 µM
CC(C)N1CN(c2ccccc2)C(=S)N(c2ccccc2)C1 | – | inconclusive: 35.5 µM [inhibitor, single point]
Cc1nn(Cc2ccccc2)c(C)c1NC(=O)CSc1n[nH]c(C)c1[N+](=O)[O-] | inactive: 22.1% | –
CCCc1nc2oc3c(NCCN4CCOCC4)ncnc3c2c2c1CCCC2 | – | inconclusive: 1 µM [activator, single point]
CCOC(=O)c1[nH]c2ccccc2c1NC(=O)CCN1CCN(C(=O)OCC)CC1 | inactive: 18.4% | –
COc1cc(NC(=O)COc2cc(O)c3c(c2)OC(C)(C)CC3=O)cc(OC)c1OC | – | inconclusive: 11.2 µM [inhibitor, single point]
COc1ccc(-c2nc(CS(=O)CC(=O)NC3CCCC(C)C3C)c(C)o2)cc1OC (centres undefined) | inactive: 39.2% | –
Cc1oc2cc([N+](=O)[O-])c(O)c([N+](=O)[O-])c2c1C(=O)c1ccc(Cl)cc1 | inactive: 12.5% | –
c1ccc(-n2ncc3c(NCc4ccc5c(c4)OCO5)ncnc32)cc1 | – | inconclusive: 31.6 µM [activator, single point]
CC12C=CC3(O1)C(C(=O)N1CCCOC13)C2C(=O)O (centres undefined) | inactive: 26.9% | –
Cc1nc(C)c(-c2csc(Nc3ccc(O)cc3C)n2)s1 | – | inconclusive: 35.5 µM [inhibitor, single point]
O=C1NC(Nc2nc3ccccc3s2)(C(F)(F)F)C(=O)N1C1CCCCC1 (centres undefined) | – | inconclusive: 35.5 µM [inhibitor, single point]
Cc1cccc(NC(=S)NC(=O)c2ccco2)c1C | – | active: 3.55 µM
CC(C)n1c(SCC(=O)Nc2ccccc2)nc2c1c(=O)n(C)c(=O)n2C | – | inconclusive: 11.2 µM [activator, partial curve]
